Laboratory results as given in paper PMC5577129.
No constants are given. Whether binding was seen depends on the method and setting. For some assays here: A result given as binding can be weak or reduced; the word gives no strength.

Sequences of proteins named here, by UniProt entry; tags and fusion partners are left off. A change or cut given only in a name is not applied to a line headed by its entry.
UniProt Q5Q0E6: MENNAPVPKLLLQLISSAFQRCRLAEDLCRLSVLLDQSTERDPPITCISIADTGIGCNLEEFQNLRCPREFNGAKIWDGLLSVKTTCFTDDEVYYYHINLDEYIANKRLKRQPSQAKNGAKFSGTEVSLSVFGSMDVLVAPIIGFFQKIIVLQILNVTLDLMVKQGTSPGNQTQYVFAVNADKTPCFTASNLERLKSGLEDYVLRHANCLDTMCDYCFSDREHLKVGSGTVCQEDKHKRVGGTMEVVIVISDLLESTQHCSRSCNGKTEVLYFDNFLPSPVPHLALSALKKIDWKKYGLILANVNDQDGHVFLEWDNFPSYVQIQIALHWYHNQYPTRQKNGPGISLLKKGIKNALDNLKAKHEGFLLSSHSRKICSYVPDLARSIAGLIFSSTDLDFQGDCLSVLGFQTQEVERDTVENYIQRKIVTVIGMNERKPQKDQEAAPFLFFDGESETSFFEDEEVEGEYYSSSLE

What was measured:
[1] = biological target: MTOPVIB (Arabidopsis thaliana) (UniProt Q5Q0E6); experiment: two-hybrid; Gal4 vector system (Clontech), pGBKT7 and pGADT7, yeast AH109; growth on SD/-Trp-Leu-His-Ade plates, 3 to 7 days, 30 °C; cells serially diluted
[2] = biological target: AtPRD2 (Arabidopsis thaliana); experiment: as above

- binding [1]: binds
- binding [2]: no binding
B1: full length AtPRD1 (1–1330 aa) (protein, UniProt O23277 1-1330)
chain: MFFQHSQLQNSDHLLHESMADSNHQSLSPPCANGHRSTISLRDDQGGTFCLICFSNLVSDPRIPTVHVSYALHQLSIAISEPIFLRTLLSSHIHFLVSPLVHALSSIDDAPIAIQIMDMISLLCSVEESSIGEDFVERISDQLSSGALGWSRRQLHMLHCFGVLMSCENININSHIRDKEALVCQLVEGLQLPSEEIRGEILFALYKFSALQFTEQNVDGIEVLSLLCPKLLCLSLEALAKTQRDDVRLNCVALLTILAQQGLLANSHSNSASSMSLDEVDDDPMQTAENVAARPCLNVLFAEAIKGPLLSTDSEVQIKTLDLIFHYISQESTPSKQIQVMVEENVADYIFEILRLSECKDQVVNSCLRVLDLFSLAEHSFRKRLVIGFPSVIRVLHYVGEVPCHPFQIQTLKLISSCISDFPGIASSSQVQEIALVLKKMLERYYSQEMGLFPDAFAIICSVFVSLMKTPSFGETADVLTSLQESLRHSILASLSLPEKDSTQILHAVYLLNEVYVYCTASTSINKTICIELRHCVIDVCTSHLLPWFLSDVNEVNEEATLGIMETFHSILLQNSDIQAKEFAELLVSADWFSFSFGCLGNFCTDNMKQRIYLMLSSLVDILLEQKTGSHIRDALHCLPSDPQDLLFLLGQASSNNQELASCQSAALLIFHTSSIYNDRLADDKLVLASLEQYIILNKTSLICAISDSPALLNLVNLYGLCRSLQNERYQISYSLEAERIIFHLLNEYEWDLGSINIHLESLKWLFQQESISKSLIYQIQKISRNNLIGNEVHNVYGDGRQRSLTYWFAKLISEGDNYAATLLVNLLTQLAEKEEQENDVISILNLMNTIVSIFPTASNNLSMNGIGSVIHRLVSGFSNSSLGTSFRTLLLLVFNILTSVQPAVLMIDESWYAVSIKLLNFLSLRDTAIKQNHEDMVVIGILSLVLYHSSDGALVEASRNIVSNSYLVSAINTVVDVACSKGPALTQCQDETNIGEALAFTLLLYFFSLRSLQIVLAGAVDWQTFFGTSTSLETLPVVCIHCHNLCRLMHFGAPQIKLIASYCLLELLTGLSEQVDIKKEQLQCSSSYLKSMKAVLGGLVFCDDIRVATNSALCLSMILGWEDMEGRTEMLKTSSWYRFIAEEMSVSLAMPCSASSTYVNHHKPAVYLTVAMLRLKNKPVWLRTVFDESCISSMIQNLNGINISREIVILFRELMQAELLNSQQVTKLDRAFQECRKQMHRNGTRDETVEEQVQRKIPSIHDHSEFCNYLVHLMVSNSFGHPSESETYTQKKKQILDEMEQFSELISTREGRVSPIQEETRQMQTERIV
